Results deposited as PubChem BioAssay AID652243 (Drosophila RNAi Screening Center, 2013).
The deposit covers about 24,000 reagents; this is a random part of those with a known target gene and a result. In the full data, 246 (1%) are marked active. 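Plates not normalised; calls are printed but the firefly/Renilla ratio behind them is not deposited; fold cut for lowering reported inconsistently.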 Raw values are not corrected between plates. Not given: the amount of reagent.

- Aim: 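Fly regulators of androgen-dependent reporter output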 (primary screen)
- System: Drosophila S2R+ cells
- Reagent: long dsRNA against Drosophila genes
- Timing: 72 h (48 h, then 24 h hormone)
- Challenge: synthetic androgen R1881 at 10 nM for 24 h
- Measured: 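Firefly light from an androgen-responsive reporter and Renilla control light per well, raw and unnormalised, for each of two replicates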
- Scale: firefly reporter light: higher = more light from androgen-responsive reporter; Renilla control light: higher = more constitutive control signal (cell number, transfection)
- Active means: 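Hit when the log firefly-to-Renilla ratio dropped or increased by a fixed fold versus the mean of GFP or LacZ controls across duplicate plates; lowering cut given as 1.5 and as 3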
- Calls: active = hit: reporter lowered or raised; inactive = no hit

Target gene | amplicon | firefly reporter light, replicate 1 | firefly reporter light, replicate 2 | Renilla control light, replicate 1 | Renilla control light, replicate 2 | outcome
CG42823 (GeneID 3885578) | DRSC37837 | 9.97e5 | 9.63e5 | 1.76e6 | 1.98e6 | inactive
CG33758 (GeneID 3772381) | DRSC38885 | 1.02e6 | 1.02e6 | 2.33e6 | 2.51e6 | inactive
CG11703 (GeneID 42307) | DRSC14356 | 1.10e5 | 1.19e5 | 8.99e5 | 9.05e5 | inactive
CG11703 (GeneID 42307) | DRSC26507 | 2.69e5 | 1.83e5 | 5.38e5 | 4.64e5 | inactive
CG32320 (GeneID 317977) | DRSC21514 | 7.33e5 | 5.87e5 | 2.78e6 | 2.26e6 | inactive
CG32320 (GeneID 317977) | DRSC28106 | 5.64e5 | 6.00e5 | 1.59e6 | 1.84e6 | inactive
ImpE1 (GeneID 45879) | DRSC11195 | 2.42e5 | 1.84e5 | 4.15e6 | 2.34e6 | inactive
ImpE1 (GeneID 45879) | DRSC11196 | 1.84e5 | 1.62e5 | 2.74e6 | 2.25e6 | inactive
ImpE1 (GeneID 45879) | DRSC24590 | 6.58e5 | 4.02e5 | 5.64e5 | 6.51e5 | inactive
snf (GeneID 31442) | DRSC18835 | 35273 | 32296 | 2.95e5 | 2.98e5 | inactive
snf (GeneID 31442) | DRSC27854 | 8.88e5 | 5.28e5 | 4.66e6 | 2.16e6 | inactive
snf (GeneID 31442) | DRSC38949 | 4.20e5 | 3.86e5 | 1.12e6 | 9.36e5 | inactive
CG13558 (GeneID 37719) | DRSC04196 | 2.75e5 | 3.60e5 | 1.78e6 | 1.43e6 | inactive
CG13558 (GeneID 37719) | DRSC27617 | 2.28e5 | 2.14e5 | 6.26e5 | 9.86e5 | inactive
pio (GeneID 37929) | DRSC04386 | 5.53e5 | 6.44e5 | 1.15e6 | 1.27e6 | inactive
pio (GeneID 37929) | DRSC29371 | 3.62e5 | 5.03e5 | 1.44e6 | 1.44e6 | inactive
Spn43Ab (GeneID 45040) | DRSC06781 | 1.84e5 | 1.15e5 | 1.61e6 | 8.78e5 | inactive
Spn43Ab (GeneID 45040) | DRSC28317 | 3.49e5 | 5.27e5 | 1.25e6 | 2.23e6 | inactive
Sod2 (GeneID 36878) | DRSC07554 | 1.05e6 | 9.43e5 | 1.83e6 | 1.82e6 | inactive
Sod2 (GeneID 36878) | DRSC27050 | 3.34e5 | 2.60e5 | 8.71e5 | 7.03e5 | inactive
CG10764 (GeneID 36962) | DRSC06000 | 1.15e6 | 4.03e5 | 1.06e6 | 3.45e5 | inactive
ATPsynGL (GeneID 34054) | DRSC03027 | 1.58e5 | 1.51e5 | 1.62e6 | 1.54e6 | inactive
ATPsynGL (GeneID 34054) | DRSC28550 | 3.00e5 | 6.33e5 | 9.90e5 | 1.51e6 | inactive
wapl (GeneID 31187) | DRSC18851 | 86809 | 95354 | 5.93e5 | 6.62e5 | inactive
wapl (GeneID 31187) | DRSC27941 | 7.93e5 | 4.31e5 | 3.66e6 | 1.49e6 | inactive
eIF4A (GeneID 33835) | DRSC03526 | 1.12e5 | 88421 | 6.67e5 | 3.67e5 | inactive
eIF4A (GeneID 33835) | DRSC26043 | 2.14e5 | 2.20e5 | 2.34e5 | 2.28e5 | inactive
bin (GeneID 38766) | DRSC10332 | 1.02e5 | 84999 | 1.00e6 | 1.21e6 | inactive
bin (GeneID 38766) | DRSC29845 | 5.07e5 | 3.97e5 | 1.04e6 | 1.09e6 | inactive
CG3494 (GeneID 37903) | DRSC04375 | 2.23e5 | 1.87e5 | 1.61e6 | 1.13e6 | inactive
CG3494 (GeneID 37903) | DRSC36880 | – | – | – | – | inactive
CG4393 (GeneID 42764) | DRSC15573 | 1.93e5 | 2.38e5 | 2.29e6 | 2.98e6 | inactive
Nepl16 (GeneID 43014) | DRSC14650 | 1.73e5 | 1.11e5 | 1.82e6 | 1.49e6 | inactive

The list goes on (7 carried over from the part before).
Target gene | amplicon | firefly reporter light, replicate 1 | firefly reporter light, replicate 2 | Renilla control light, replicate 1 | Renilla control light, replicate 2 | outcome
eIF4A (GeneID 33835) | DRSC26043 | 2.14e5 | 2.20e5 | 2.34e5 | 2.28e5 | inactive
bin (GeneID 38766) | DRSC10332 | 1.02e5 | 84999 | 1.00e6 | 1.21e6 | inactive
bin (GeneID 38766) | DRSC29845 | 5.07e5 | 3.97e5 | 1.04e6 | 1.09e6 | inactive
CG3494 (GeneID 37903) | DRSC04375 | 2.23e5 | 1.87e5 | 1.61e6 | 1.13e6 | inactive
CG3494 (GeneID 37903) | DRSC36880 | – | – | – | – | inactive
CG4393 (GeneID 42764) | DRSC15573 | 1.93e5 | 2.38e5 | 2.29e6 | 2.98e6 | inactive
Nepl16 (GeneID 43014) | DRSC14650 | 1.73e5 | 1.11e5 | 1.82e6 | 1.49e6 | inactive
Vhl (GeneID 53433) | DRSC07716 | 1.51e5 | 1.05e5 | 1.36e6 | 1.08e6 | inactive
Vhl (GeneID 53433) | DRSC28332 | 3.42e5 | 6.04e5 | 1.10e6 | 2.09e6 | inactive
sqz (GeneID 42300) | DRSC16980 | 3.08e5 | 3.21e5 | 3.70e6 | 4.01e6 | inactive
sqz (GeneID 42300) | DRSC28971 | 1.10e6 | 8.93e5 | 1.60e6 | 1.30e6 | inactive
CG13532 (GeneID 37632) | DRSC04174 | 3.91e5 | 3.79e5 | 2.63e6 | 2.30e6 | inactive
CG4793 (GeneID 34941) | DRSC01966 | 1.97e5 | 2.09e5 | 1.88e6 | 2.44e6 | inactive
lobo (GeneID 4379864) | DRSC14662 | 1.41e5 | 1.74e5 | 2.63e6 | 2.21e6 | inactive
lobo (GeneID 4379864) | DRSC14663 | 1.36e5 | 1.72e5 | 1.97e6 | 2.08e6 | inactive
lobo (GeneID 4379864) | DRSC29681 | 5.16e5 | 7.70e5 | 7.97e5 | 7.97e5 | inactive
CG8028 (GeneID 32923) | DRSC20075 | 92513 | 56397 | 2.64e5 | 2.14e5 | inactive
bic (GeneID 45827) | DRSC07584 | 9.40e5 | 1.03e6 | 2.49e6 | 2.22e6 | inactive
bic (GeneID 45827) | DRSC25656 | 1.00e6 | 9.18e5 | 1.08e6 | 1.24e6 | inactive
CG17715 (GeneID 3355129) | DRSC11950 | 1.29e5 | 76754 | 3.48e6 | 1.65e6 | inactive
ND-49 (GeneID 43798) | DRSC17151 | 2.26e5 | 2.61e5 | 3.42e6 | 2.89e6 | inactive
slim (GeneID 37121) | DRSC06921 | 1.12e6 | 1.10e6 | 2.37e6 | 1.81e6 | inactive
Acf (GeneID 43751) | DRSC14101 | 79984 | 42115 | 5.26e5 | 3.45e5 | inactive
Acf (GeneID 43751) | DRSC29797 | 4.63e5 | 4.64e5 | 1.42e6 | 1.45e6 | inactive
Acyp2 (GeneID 41910) | DRSC15336 | 1.73e5 | 2.13e5 | 2.13e6 | 2.79e6 | inactive
CG30430 (GeneID 246610) | DRSC22260 | 7.74e5 | 7.72e5 | 1.04e6 | 9.04e5 | inactive
tai (GeneID 34242) | DRSC02673 | 2.12e5 | 2.66e5 | 1.30e6 | 1.34e6 | inactive
emb (GeneID 34167) | DRSC03528 | 5.52e5 | 7.15e5 | 1.74e6 | 2.17e6 | inactive
KrT95D (GeneID 42843) | DRSC16725 | 12513 | 27734 | 2.33e5 | 2.95e5 | inactive
KrT95D (GeneID 42843) | DRSC25551 | 4.24e5 | 4.24e5 | 5.17e5 | 4.81e5 | inactive
CG14506 (GeneID 43467) | DRSC14858 | 2.60e5 | 2.37e5 | 2.63e6 | 3.37e6 | inactive
hkb (GeneID 40549) | DRSC12377 | 4.20e5 | 7.66e5 | 1.31e6 | 2.04e6 | inactive
hkb (GeneID 40549) | DRSC23599 | 5.18e5 | 3.72e5 | 3.97e5 | 4.01e5 | inactive
